# Results published in PubChem BioAssay AID504444 (National Center for Advancing Translational Sciences (NCATS), 2011).
# Hit rate of the full screen: of about 360,000 compounds, about 7,500 (2.1%) were called active. Inconclusive results, whose numbers are uncertain, are shown with a selection of clear calls. Calls come from the whole dose curve; as a rule, active = well fitted inhibition curve with a large enough effect; inconclusive = small, poorly fitted or top-dose-only effect, or effect the other way; inactive = flat fitted curve, though single readings scatter. Potencies beside an inconclusive call are fits to weak or partial responses and may not hold up.
# Assay: Nrf2 qHTS screen for inhibitors; note: nearly all actives have a fitted effect of over 60% in size
# Conditions: A549 ARE-Fluc reporter, luciferase luminescence, 18-24 h; activity change, negative = inhibition: at 46 µM (top of the series)
# Summary of the method: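 Nrf2 activity is the BugLite luminescence, read 15 min after reagent at room temperature, following CellTiter-Fluor cytotoxicity readout (30 min, 37C). Compound titrations were applied for 18-24 h to 5000 A549 ARE_Fluc cells/well in 5% FBS OPTI-MEM.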
# % is set by controls: 0 for no effect and ±100 for the full control effect; potency is the fitted concentration of half-maximal effect.
SMILES,Potency,"activity change, negative = inhibition"
Cc1cccc(NC(=O)/C(C#N)=C/c2ccc(C)o2)c1,"inconclusive: 9.2 µM [activator, partial curve]",
O=C(Nc1ccc(O)cc1)c1ccc(C(=O)c2ccccc2)o1,"inconclusive: 7.94 µM [falling, full curve, poor fit]",
CSCCC(NC(=O)c1ccccc1Cl)C(=O)N1CCCCC1 (stereo not given),"inconclusive: 7.31 µM [falling, partial curve, poor fit]",
CCOC(=O)C1(S(=O)(=O)c2ccc(Cl)cc2)CCN(Cc2ccc(C)cc2)CC1,"inconclusive: 20.6 µM [falling, single point]",
CN(CCC#N)C(=S)Nc1ccc(Oc2ccccc2)cc1,"inconclusive: 18.4 µM [falling, partial curve, poor fit]",
Cc1ccc(S/C(=N/S(=O)(=O)c2ccc(Cl)cc2)c2ccccc2)cc1,,inactive: -4.52%
COc1ccc(NC(=O)CCS(=O)(=O)c2ccccc2Cl)cc1S(=O)(=O)Nc1ccc(Cl)cc1,"inconclusive: 29.1 µM [falling, single point]",
O=C(c1cc(-c2cccs2)on1)N1CCN(C(c2ccccc2)c2ccccc2)CC1,"inconclusive: 18.4 µM [falling, single point]",
CC(=O)c1ccc(N2CCN(c3ccc4cc(S(=O)(=O)N5CCC(C)CC5)ccc4n3)CC2)cc1,"inconclusive: 25.9 µM [falling, partial curve, poor fit]",
COc1ccc(Cl)cc1S(=O)(=O)N1CCN(c2ccc(F)cc2)CC1,"inconclusive: 0.92 µM [falling, full curve, poor fit]",
Cc1ccc2c(c1)nnn2C1CCN(S(=O)(=O)c2ccc(C(=O)N3C(C)CCCC3C)cc2)CC1 (stereo not given),active: 10.3 µM,
CCOc1ccc2nc(NC(=O)Cn3[nH]c(=O)c4ccccc4c3=O)sc2c1,"inconclusive: 20.6 µM [falling, single point]",
CCNc1nc(NCC)nc(N(C#N)CCOc2ccccc2)n1,"inconclusive: 13 µM [falling, partial curve, poor fit]",
O=C(CSc1nncc2ccccc12)N1CCCCC1,active: 10.3 µM,
Cc1ccc(CSc2nc3cccnc3n2Cc2ccc(C(=O)NC3CCCCC3)cc2)cc1,"inconclusive: 29.1 µM [falling, single point]",
Cn1cc(S(=O)(=O)N2CCc3ccccc32)cc1C(=O)NC(C)(C)C,active: 2.06 µM,
COc1cccc(C(=O)/C=C/Nc2ccc(S(=O)(=O)Nc3ccc(C(C)=O)cc3)cc2)c1,"inconclusive: 18.4 µM [falling, single point]",
O=C1NC(=S)N/C1=C\c1cccnc1,"inconclusive: 29.1 µM [falling, partial curve, poor fit]",
CCOC(=O)C1=C(C)NC(C)=C(C(=O)OCC)C1c1ccc(Br)o1,"inconclusive: 23.1 µM [falling, single point]",
Cn1nnc2c(sc3nc(N4CCOCC4)c4c(c32)CCCC4)c1=O,"inconclusive: 18.4 µM [activator, partial curve, poor fit]",
CCc1nnc(NC(=O)CN2CCC(O)(c3ccccc3OC)CC2)s1,"inconclusive: 3.66 µM [falling, partial curve, poor fit]",
COc1ccc(-c2nnc(-c3ccccc3)o2)cc1OC,"inconclusive: 2.91 µM [activator, full curve]",

# Given with bars between the fields: entries from further up
SMILES | Potency | activity change, negative = inhibition
COc1ccc(Cl)cc1S(=O)(=O)N1CCN(c2ccc(F)cc2)CC1 | inconclusive: 0.92 µM [falling, full curve, poor fit] | 
O=C1NC(=S)N/C1=C\c1cccnc1 | inconclusive: 29.1 µM [falling, partial curve, poor fit] | 
Cn1nnc2c(sc3nc(N4CCOCC4)c4c(c32)CCCC4)c1=O | inconclusive: 18.4 µM [activator, partial curve, poor fit] | 

# The list continues.

SMILES,Potency,"activity change, negative = inhibition"
O=C(N/N=C/c1ccc(N2CCOCC2)cc1)C1CC1,"inconclusive: 29.1 µM [activator, single point]",
CCOC(=O)c1c(N)sc(C(O)(C(F)(F)F)C(F)(F)F)c1-c1ccc(F)cc1,"inconclusive: 23.1 µM [falling, single point]",
CCOc1ccc2c(c1)c(=O)c(S(=O)(=O)c1ccc(C)cc1)cn2Cc1ccccc1Cl,,inactive: -17.4%
Cc1cc(NS(=O)(=O)c2ccc(NC(=O)c3ccc([N+](=O)[O-])s3)cc2)nc(C)n1,,inactive: -11.3%
COCC(=O)Nc1ccc(N2CCOCC2)c(S(=O)(=O)Nc2ccccc2OC)c1,"inconclusive: 13 µM [falling, partial curve, poor fit]",
O=C(Cc1ccc(S(=O)(=O)N2CCOCC2)s1)Nc1ccc(S(=O)(=O)N2CCCCC2)cc1,active: 20.6 µM,
O=c1[nH]c(CSc2nnc(NCCCN3CCOCC3)s2)nc2cc(Cl)ccc12,"inconclusive: 5.8 µM [falling, full curve, poor fit]",
CC(C)CCNC(=O)c1ccc2c(c1)ncn2C1CCCC1,"inconclusive: 23.1 µM [activator, single point]",
COc1ccc(-n2nc(N)c(C(N)=O)n2)cc1,,inactive: 7.29%
COc1ccc(C(=O)C[n+]2cc(-c3ccc(OC)cc3)n3c2CCCC3)cc1,active: 8.2 µM,
CC(=O)Nc1ccc(N2C(=O)C3C4CC(=O)C(c5ccccc54)C3C2=O)cc1 (stereo not given),"inconclusive: 0.184 µM [activator, full curve, poor fit]",
CCCCOn1c(C)c(C(C)=O)c2c3no[n+]([O-])c3ccc21,"inconclusive: 29.1 µM [falling, single point]",
CCn1ncc(Br)c1C(=O)Nc1nccs1,"inconclusive: 5.8 µM [falling, partial curve, poor fit]",
O=C(NCC(c1cccnc1)N1CCN(c2ccc(F)cc2)CC1)c1cccc(Cl)c1 (stereo not given),"inconclusive: 25.9 µM [falling, partial curve]",
CCCCOc1ccc(C(=O)NCC(=O)NCC(=O)OCC)cc1,"inconclusive: 14.6 µM [falling, partial curve, poor fit]",
CC1(C)C(=O)NCCN1C(=O)c1ccc2nc(Cc3ccccc3F)oc2c1,"inconclusive: 14.6 µM [falling, partial curve]",
CC(C)c1ccc(-c2noc(C3CCCN(C(=O)c4ccc(F)cc4F)C3)n2)cc1 (stereo not given),"inconclusive: 14.6 µM [falling, partial curve, poor fit]",
Cc1ccc(CCNC(=O)C2CCCN(S(=O)(=O)c3c(C)noc3C)C2)cc1 (stereo not given),"inconclusive: 11.6 µM [falling, partial curve]",
CCC[C@@H]1C[C@@]1(CCC)[C@@H](NP(=O)(c1ccccc1)c1ccccc1)c1ccc(C(=O)OC)cc1,"inconclusive: 16.4 µM [falling, single point]",
COc1cc2c(cc1OC)C(c1ccccc1)N(C(=O)c1cccc(S(C)(=O)=O)c1)CC2 (stereo not given),"inconclusive: 4.11 µM [activator, full curve]",
Cc1cccc(C(=O)NNC(=O)c2ccc(S(=O)(=O)N3CCOCC3)cc2)c1,"inconclusive: 10.3 µM [falling, partial curve]",
Cc1ccc(NC(=S)N(CCN(C)C)Cc2cc3cc(C)cc(C)c3[nH]c2=O)cc1,"inconclusive: 32.6 µM [activator, single point]",

SMILES,Potency,"activity change, negative = inhibition"
Cc1cc(-c2ccc(C)c(S(=O)(=O)NCCCN(Cc3ccccc3)C(C)C)c2)on1,,inactive: 2.12%
CC(NC(=O)/C=C/c1ccco1)c1nc2ccccc2n1Cc1c(Cl)cccc1Cl (stereo not given),"inconclusive: 23.1 µM [falling, single point]",
CN(CC(=O)Nc1cccc(S(=O)(=O)N2CCCC2)c1)CC(=O)Nc1ccc(F)c(F)c1F,"inconclusive: 18.4 µM [falling, single point]",
Nc1ncnc2c1ncn2-c1ccccc1Cl,,inactive: 25.2%
Cc1ccccc1OCC(=O)Nc1ccc(C)c(S(=O)(=O)N2CCCCCC2)c1,active: 23.1 µM,
c1ccc(-c2cc3c(N4CCCCC4)ncnc3s2)cc1,"inconclusive: 32.6 µM [falling, single point]",
CN(C)c1cccc(C(=O)OCCNC(=O)c2cccc(S(=O)(=O)N3CCOCC3)c2)c1,,inactive: -14.7%
O=C(N/N=C1\CCCc2ccccc21)c1cccc(Br)c1,"inconclusive: 10.3 µM [activator, partial curve]",
COC(=O)c1ccccc1NC(=O)Nc1ccc(Cl)cn1,"inconclusive: 16.4 µM [activator, partial curve, poor fit]",
N#Cc1c(NC(=O)CSc2nc(-c3ccccc3)cc(C(F)(F)F)n2)sc2c1CCC2,"inconclusive: 29.1 µM [activator, single point]",
NS(=O)(=O)c1ccccc1,,inactive: 7.56%
CCCn1c(CN(C)Cc2ccccc2)nc2c1c(=O)n(C)c(=O)n2C,"inconclusive: 14.6 µM [falling, single point]",
Cc1cccc(CN2CCC(CNc3ncnc4onc(-c5ccc(Cl)cc5)c34)CC2)c1,,inactive: 8.02%
Cc1cccc(CS(=O)(=O)Cc2ccc(C(=O)NCCCN3CCOCC3)o2)c1,,inactive: -0.416%
CC(CN1CCCC1)OC(=O)c1ccc(Br)cc1 (stereo not given),,inactive: 6.45%
OCCNc1nc(Nc2ccccc2C(F)(F)F)nc(N2CCCC2)n1,"inconclusive: 29.1 µM [falling, partial curve, poor fit]",
COc1ccc(-n2nc(C(=O)NCC(=O)Nc3cc(OC)ccc3OC)c3ccccc3c2=O)cc1,"inconclusive: 7.31 µM [falling, partial curve]",
CC1CCN(C(=O)CCCOc2cc(=O)n(C)c3ccccc23)CC1,"inconclusive: 16.4 µM [falling, single point]",
Cc1cc(C(C)(C)C)oc1C(=O)N(CC(=O)NC1CCCC1)c1ccc(F)cc1,"inconclusive: 16.4 µM [falling, partial curve]",
CC(C)C[C@H]1CNC(=S)N1CC1CCCN1C[C@H](CC(C)C)N1C[C@H](Cc2ccc(O)cc2)N(CC2CCCCCC2)C1=S (stereo not given in full),"inconclusive: 18.4 µM [falling, single point]",
CCOc1ccc(S(=O)(=O)NCCc2cn3ccccc3n2)cc1,"inconclusive: 9.2 µM [falling, partial curve, poor fit]",
